For at least one compound, name, drawing or mass did not settle the structure.
Assays:
[1] = test system: CD4+CD25+CD127− Treg cells; assay: ELISA of secreted cytokines (TNFα, IL-10, IFNγ) in conditioned media of Treg cultures; format: cell-based, human; details: Sia added to PMA-stimulated Tregs; each time point; p<0.01
Description: (§1) CD4^+CD25^+CD127^− Treg cells were sorted by FACS into phosphate buffered saline (PBS) containing 20% AB serum (Sigma-Aldrich®, UK), then washed and resuspended in serum-free cell culture medium (TexsMACS™ medium; Miltenyi Biotec®, UK), supplemented with 5% AB serum (Sigma-Aldrich®, UK), 1% Penicillin-Streptomycin (Gibco®, Ireland) and human IL-2 (Miltenyi Biotec®, UK). Trypan blue (Sigma-Aldrich®, UK) was used to ensure cell viability after sorting was >90-95%. A human Treg expansion kit (Miltenyi Biotec, UK) was used to induce Treg proliferation in order to expand the population to sufficient cell numbers for experiments. Following 14 days of expansion, Tregs were stimulated with 10 ng/ml phorbol 12-myristate 13-acetate (PMA) (Sigma-Aldrich®, UK) and 500 ng/ml ionomycin (10) (Invitrogen®) for 24 hours. During the same 24-hour stimulation, Tregs were incubated with or without 10 mM sialic acid (Sia) (Sigma-Aldrich®, UK). At baseline, 24 hr and 48 hr time points (Day 0, Day 1 and Day 2), cells were removed from culture and labelled prior to FACS analysis of extracellular markers CD4, CD25, CD127 and CD43, and intracellular markers NFκB and FoxP3. Cell culture conditioned media was retained and analysed for secreted cytokine levels by enzyme-linked immunosorbent assay (ELISA), described below. A preliminary experiment included a Day 2 time-point, however latter experiments were concluded at the Day 1 time-point as this was sufficient to observe Sia treatment effects. […]
Following cell culture experiments, conditioned media were analysed to quantify TNFα, IL-10 and IFN-γ by ELISA using appropriate ELISA reagent kits (DuoSet® ELISA development kits; R&D Systems®, UK) according to the manufacturer's instructions. The optical density (OD) was determined using a spectrophotometer (Epoch™ microplate spectrophotometer; BioTek® Ltd, UK) with appropriate software (Gen5™; BioTek® Ltd, UK). The plate was read at a wavelength of 450 nm and wavelength correction of OD at 540 nm used. […]

[2] = test system: CD4+CD25+CD127− Treg cells; assay: FACS analysis of CD4, NFκB and FoxP3 in expanded Tregs stimulated with PMA with or without Sia; format: cell-based, human
Description: PBMCs were labelled with antibodies (Becton Dickinson®, UK) against CD3, CD4, CD25, CD45, CD45RA, CD127 and CD43 antigens according to the manufacturer's instructions to assess relative Treg numbers. When FoxP3 and nuclear factor kappa-light-chain-enhancer of activated B cells (NFκB) antibody labelling was required, cells were pretreated with a lymphocyte membrane permeabilising solution (BD FACS™ Permeabilizing solution 2; Becton Dickinson®, UK). For monocyte analysis, cells were firstly enriched using a pan monocyte isolation kit and benchtop magnetic cell sorting device (autoMACS Pro separator; Miltenyi Biotec®). Enriched monocytes were labelled with antibodies (Becton Dickinson®, UK) against CD14, CD16 and CD169 antigens. Cell populations were analysed using fluorescence-activated cell sorting (FACS) in a flow cytometer with sorting capability (FACSAria™ III; Becton Dickinson, UK) with appropriate flow cytometer software (BD FACSDiva™ software version 8.0.1; Becton Dickinson, UK). Negative controls including unlabelled cells and isotype matched control antibodies were used to determine gating strategies. The positivity of a specific cell surface marker in labelled samples compared to the negative control was analysed as a percentage of the parent population. The median fluorescence intensity (MFI), indicating cell surface density of a specific marker, was also noted for cell populations. Mann Whitney tests were used to assess the statistical significance of differences between sample groups and graphs depict median values with error bars representing the interquartile range.
as §1, with “At baseline, 24 hr and 48 hr time points (Day 0, Day 1 and Day 2), cells were removed from culture and labelled prior to FACS analysis of extracellular markers CD4, CD25, CD127 and CD43, and intracellular markers NFκB and FoxP3.” left out, “below.” for “below. A preliminary experiment included a Day 2 time-point, however latter experiments were concluded at the Day 1 time-point as this was sufficient to observe Sia treatment effects.”

[3] = Sia added to PMA/IO-stimulated Tregs, after 2 days of stimulation

CC(=O)N[C@H]1[C@H]([C@H](O)[C@H](O)CO)OC(O)(C(=O)O)C[C@@H]1O (stereo partly shown) [Sia, sialic acid]
IFNγ secreted into media [1]: significant reduction
IL-10 secreted into media [1]: significant reduction
TNFα secreted into media [1]: significant reduction
relative numbers of NFκB+ Tregs ([2]; 10 mM Sia added to PMA-stimulated Tregs, Day 1, not statistically significant): reduced
relative numbers of FoxP3+ Tregs ([2]; 10 mM Sia added to PMA-stimulated Tregs, Day 1 and Day 2, reduction over time p<0.05): reduced
FoxP3+CD43+ Tregs [2, 3]: not observed
FoxP3+CD43− Tregs [2, 3]: significantly reduced
